This note sets out measurements from US20250066503A1, “CELL INJURY INDUCING THERAPEUTIC DRUG FOR USE IN CANCER THERAPY” (CHUGAI SEIYAKU KABUSHIKI KAISHA, priority 2016, published 2025).

The labels stand for the following.
B1: antibody-36: optimized anti-human CD3ε chain and anti-human GPC3 bispecific antibody (antibody)
heavy 1: QVQLVESGGGVVQPGGSLRLSCAASGFTFSNAWMHWVRQAPGKGLEWVAQIKDKSQNYATYVAESVKGRFTISRADSKNSIYLQMNSLKTEDTAVYYCRYVHYAAGYGVDIWGQGTTVTVSSASTKGPSVFPLAPCSRSTSESTAALGCLVKDYFPEPVTVSWNSGALTSGVHTFPAVLQSSGLYSLSSVVTVPSSSLGTKTYTCNVDHKPSNTKVDKRVESKYGPPCPPCPAPEFRGGPKVFLFPPKPKDTLMISRTPEVTCVVVDVSQEDPEVQFNWYVDGVEVHNAKTKPREEQFASTYRVVSVLTVLHQDWLNGKEYKCKVSNKGLPSSIEKTISKAKGQPREPQVYTLPPSQKEMTKNQVSLTCLVKGFYPSDIAVEWESNGQPENNYKTTPPVLDSDGSFFLYSKLTVDKSRWQEGNVFSCSVMHEALHNRYTQKSLSLSP
heavy 2: QVQLVQSGAEVKKPGASVTVSCKASGYTFTDYEMHWVRQAPGEGLEWMGAIDGETPDTAYSEKFKGRVTLTADKSTSTAYMELSSLTSEDTAVYYCTRFYSYTYWGQGTLVTVSSASTKGPSVFPLAPCSRSTSESTAALGCLVKDYFPEPVTVSWNSGALTSGVHTFPAVLQSSGLYSLSSVVTVPSSSLGTQTYTCNVDHKPSNTKVDKRVESKYGPPCPPCPAPEFRGGPKVFLFPPKPKDTLMISRTPEVTCVVVDVSQEDPEVQFNWYVDGVEVHNAKTKPREEQFASTYRVVSVLTVLHQDWLNGKEYKCKVSNKGLPSSIEKTISKAKGQPREPQVYTLPPSQEEMTKNQVSLTCLVKGFYPSDIAVEWESNGQPENNYKTTPPVLDSDGSFFLYSKLTVDKSRWQEGNVFSCSVMHEALHNHYTQESLSLSP
light: DIVMTQSPLSLPVTPGEPASISCRSSQPLVHSNRNTYLHWYQQKPGQAPRLLIYKVSNRFSGVPDRFSGSGSGTDFTLKISRVEAEDVGVYYCGQGTQVPYTFGQGTKLEIKRTVAAPSVFIFPPSDEQLKSGTASVVCLLNNFYPREAKVQWKVDNALQSGNSQESVTEQDSKDSTYSLSSTLTLSKADYEKHKVYACEVTHQGLSSPVTKSFNRGEC
B2: antibody-32: optimized anti-human CD3ε chain and anti-human GPC3 bispecific antibody (antibody)
heavy 1: QVQLVESGGGVVQPGGSLRLSCAASGFTFSNAWMHWVRQAPGKGLEWVAQIKDKSQNYATYYAESVKGRFTISRADSKNSIYLQMNSLKTEDTAVYYCRYVHYAAGYGVDIWGQGTTVTVSSASTKGPSVFPLAPCSRSTSESTAALGCLVKDYFPEPVTVSWNSGALTSGVHTFPAVLQSSGLYSLSSVVTVPSSSLGTKTYTCNVDHKPSNTKVDKRVESKYGPPCPPCPAPEFRGGPKVFLFPPKPKDTLMISRTPEVTCVVVDVSQEDPEVQFNWYVDGVEVHNAKTKPREEQFASTYRVVSVLTVLHQDWLNGKEYKCKVSNKGLPSSIEKTISKAKGQPREPQVYTLPPSQKEMTKNQVSLTCLVKGFYPSDIAVEWESNGQPENNYKTTPPVLDSDGSFFLYSKLTVDKSRWQEGNVFSCSVMHEALHNRYTQKSLSLSP
heavy 2: QVQLVQSGAEVKKPGASVTVSCKASGYTFTDYEMHWIRQPPGEGLEWIGAIDGPTPDTAYSEKFKGRVTLTADKSTSTAYMELSSLTSEDTAVYYCTRFYSYTYWGQGTLVTVSSASTKGPSVFPLAPCSRSTSESTAALGCLVKDYFPEPVTVSWNSGALTSGVHTFPAVLQSSGLYSLSSVVTVPSSSLGTQTYTCNVDHKPSNTKVDKRVESKYGPPCPPCPAPEFRGGPKVFLFPPKPKDTLMISRTPEVTCVVVDVSQEDPEVQFNWYVDGVEVHNAKTKPREEQFASTYRVVSVLTVLHQDWLNGKEYKCKVSNKGLPSSIEKTISKAKGQPREPQVYTLPPSQEEMTKNQVSLTCLVKGFYPSDIAVEWESNGQPENNYKTTPPVLDSDGSFFLYSKLTVDKSRWQEGNVFSCSVMHEALHNHYTQESLSLSP
light: DIVMTQSPLSLPVTPGEPASISCRSSQPLVHSNRNTYLHWYQQKPGQAPRLLIYKVSNRFSGVPDRFSGSGSGTDFTLKISRVEAEDVGVYYCGQGTQVPYTFGQGTKLEIKRTVAAPSVFIFPPSDEQLKSGTASVVCLLNNFYPREAKVQWKVDNALQSGNSQESVTEQDSKDSTYSLSSTLTLSKADYEKHKVYACEVTHQGLSSPVTKSFNRGEC
B3: antibody-29: optimized anti-human CD3ε chain and anti-human GPC3 bispecific antibody (antibody)
heavy 1: QVQLVESGGGLVQPGRSLRLSCAASGFTFSNAWMHWVRQAPGKGLEWVAQIKDKSQNYATYYAESVKGRFTISRDDSKNSLYLQMNSLKTEDTAVYYCRYVHYAAGYGVDAWGQGTTVTVSSASTKGPSVFPLAPCSRSTSESTAALGCLVKDYFPEPVTVSWNSGALTSGVHTFPAVLQSSGLYSLSSVVTVPSSSLGTKTYTCNVDHKPSNTKVDKRVESKYGPPCPPCPAPEFRGGPKVFLFPPKPKDTLMISRTPEVTCVVVDVSQEDPEVQFNWYVDGVEVHNAKTKPREEQFASTYRVVSVLTVLHQDWLNGKEYKCKVSNKGLPSSIEKTISKAKGQPREPQVYTLPPSQKEMTKNQVSLTCLVKGFYPSDIAVEWESNGQPENNYKTTPPVLDSDGSFFLYSKLTVDKSRWQEGNVFSCSVMHEALHNRYTQKSLSLSP
heavy 2: QVQLVQSGAEVKKPGASVTVSCKASGYTFTDYEMHWVRQAPGEGLEWMGAIDGETPDTAYSEKFKGRVTLTADKSTSTAYMELSSLTSEDTAVYYCTRFYSYTYWGQGTLVTVSSASTKGPSVFPLAPCSRSTSESTAALGCLVKDYFPEPVTVSWNSGALTSGVHTFPAVLQSSGLYSLSSVVTVPSSSLGTQTYTCNVDHKPSNTKVDKRVESKYGPPCPPCPAPEFRGGPKVFLFPPKPKDTLMISRTPEVTCVVVDVSQEDPEVQFNWYVDGVEVHNAKTKPREEQFASTYRVVSVLTVLHQDWLNGKEYKCKVSNKGLPSSIEKTISKAKGQPREPQVYTLPPSQEEMTKNQVSLTCLVKGFYPSDIAVEWESNGQPENNYKTTPPVLDSDGSFFLYSKLTVDKSRWQEGNVFSCSVMHEALHNHYTQESLSLSP
light: DIVMTQSPLSLPVTPGEPASISCRSSQPPVHSNRNTYLHWYQQKPGQAPRLLIYKVSNRFSGVPDRFSGSGSGTDFTLKISRVEAEDVGVYYCGQGTQVPYTFGQGTKLEIKRTVAAPSVFIFPPSDEQLKSGTASVVCLLNNFYPREAKVQWKVDNALQSGNSQESVTEQDSKDSTYSLSSTLTLSKADYEKHKVYACEVTHQGLSSPVTKSFNRGEC
B4: antibody-31: optimized anti-human CD3ε chain and anti-human GPC3 bispecific antibody (antibody)
heavy 1: QVQLVESGGGVVQPGGSLRLSCAASGFTFSNAWMHWVRQAPGKGLEWVAQIKDKSQNYATYYAESVKGRFTISRADSKNSIYLQMNSLKTEDTAVYYCRYVHYAAGYGVDIWGQGTTVTVSSASTKGPSVFPLAPCSRSTSESTAALGCLVKDYFPEPVTVSWNSGALTSGVHTFPAVLQSSGLYSLSSVVTVPSSSLGTKTYTCNVDHKPSNTKVDKRVESKYGPPCPPCPAPEFRGGPKVFLFPPKPKDTLMISRTPEVTCVVVDVSQEDPEVQFNWYVDGVEVHNAKTKPREEQFASTYRVVSVLTVLHQDWLNGKEYKCKVSNKGLPSSIEKTISKAKGQPREPQVYTLPPSQKEMTKNQVSLTCLVKGFYPSDIAVEWESNGQPENNYKTTPPVLDSDGSFFLYSKLTVDKSRWQEGNVFSCSVMHEALHNRYTQKSLSLSP
heavy 2: QVQLVQSGAEVKKPGASVTVSCKASGYTFTDYEMHWVRQAPGEGLEWMGAIDGETPDTAYSEKFKGRVTLTADKSTSTAYMELSSLTSEDTAVYYCTRFYSYTYWGQGTLVTVSSASTKGPSVFPLAPCSRSTSESTAALGCLVKDYFPEPVTVSWNSGALTSGVHTFPAVLQSSGLYSLSSVVTVPSSSLGTQTYTCNVDHKPSNTKVDKRVESKYGPPCPPCPAPEFRGGPKVFLFPPKPKDTLMISRTPEVTCVVVDVSQEDPEVQFNWYVDGVEVHNAKTKPREEQFASTYRVVSVLTVLHQDWLNGKEYKCKVSNKGLPSSIEKTISKAKGQPREPQVYTLPPSQEEMTKNQVSLTCLVKGFYPSDIAVEWESNGQPENNYKTTPPVLDSDGSFFLYSKLTVDKSRWQEGNVFSCSVMHEALHNHYTQESLSLSP
light: DIVMTQSPLSLPVTPGEPASISCRSSQPLVHSNRNTYLHWYQQKPGQAPRLLIYKVSNRFSGVPDRFSGSGSGTDFTLKISRVEAEDVGVYYCGQGTQVPYTFGQGTKLEIKRTVAAPSVFIFPPSDEQLKSGTASVVCLLNNFYPREAKVQWKVDNALQSGNSQESVTEQDSKDSTYSLSSTLTLSKADYEKHKVYACEVTHQGLSSPVTKSFNRGEC
B5: antibody-7: anti-human CD3ε chain and anti-human GPC3 bispecific antibody (antibody)
heavy: EVQLVETGGSLVQPGKSLKLTCATSGFTFSNAWMHWVRQSPEKQLEWVAQIKAKSNNYATYYAESVKGRFTISRDDSKSNIYLQMNSLKEEDTAVYYCRYVHYGAYYGVDAWGQGTSVTVSSASTKGPSVFPLAPSSKSTSGGTAALGCLVKDYFPEPVTVSWNSGALTSGVHTFPAVLQSSGLYSLSSVVTVPSSSLGTQTYICNVNHKPSNTKVDKKVEPKSCDKTHTCPPCPAPEAAGGPSVFLFPPKPKDTLMISRTPEVTCVVVDVSHEDPEVKFNWYVDGVEVHNAKTKPREEQYASTYRVVSVLTVLHQDWLNGKEYKCKVSNKALPAPIEKTISKAKGQPREPQVYTLPPSRCELTKNQVSLSCAVKGFYPSDIAVEWESNGQPENNYKTTPPVLDSDGSFFLVSKLTVDKSRWQQGNVFSCSVMHEALHNHYTQKSLSLSPDYKDDDDK
light: DVVMTQTPVSMSVSLGGQVSISCRSSQSLVHNNGNTYVSWYIQKPSQSPQLLIYKVSNRFSGISDRFSGSGSGTDFTLKISRVEPDDLGVYYCGQGTQDPYTFGAGTKLELKRTVAAPSVFIFPPSDEQLKSGTASVVCLLNNFYPREAKVQWKVDNALQSGNSQESVTEQDSKDSTYSLSSTLTLSKADYEKHKVYACEVTHQGLSSPVTKSFNRGEC
chain 1: DIVMTQSPLSLPVTPGEPASISCRSSQSLVHSNRNTYLHWYQQKPGQAPRLLIYKVSNRFSGVPDRFSGSGSGTDFTLKISRVEAEDVGVYYCGQGTQVPYTFGQGTKLEIKSSASTKGPSVFPLAPSSKSTSGGTAALGCLVKDYFPEPVTVSWNSGALTSGVHTFPAVLQSSGLYSLSSVVTVPSSSLGTQTYICNVNHKPSNTKVDKKVEPKSCDKTHTCPPCPAPEAAGGPSVFLFPPKPKDTLMISRTPEVTCVVVDVSHEDPEVKFNWYVDGVEVHNAKTKPREEQYASTYRVVSVLTVLHQDWLNGKEYKCKVSNKALPAPIEKTISKAKGQPREPQVCTLPPSRDELTKNQVSLWCLVKGFYPSDIAVEWESNGQPENNYKTTPPVLDSDGSFFLYSKLTVDKSRWQQGNVFSCSVMHEALHNHYTQKSLSLSPHHHHHHHH
chain 2: QVQLVQSGAEVKKPGASVKVSCKASGYTFTDYEMHWIRQPPGQGLEWIGAIDGKTPDTAYSQKFKGRVTLTADKSTSTAYMELSSLTSEDTAVYYCTRFYSYTYWGQGTLVTVSSASVAAPSVFIFPPSDEQLKSGTASVVCLLNNFYPREAKVQWKVDNALQSGNSQESVTEQDSKDSTYSLSSTLTLSKADYEKHKVYACEVTHQGLSSPVTKSFNRGEC

This data set has as its system extracellular matrix (BD Matrigel). In words: Assessment of the ECM-binding ability (ECL on BD Matrigel). The settings on record: fluorescence intensity relative to standard antibody MRAH-G1d/MRAL-k0.
With B1, the “ECM binding ratio (standard = 1)” value turned out to be 1.6.
In the case of B2 it was 1.3; in that of B3, 1.1; in that of B4, 1.2.
The same measure for B5: 1.4.
